Data reported in the supplement of paper PMC12542422.
Structures can show the parent of a compound that is named as a salt. ± gives the standard deviation of the averaged measurements. This is one part of the list. Values are raw readings; no control value is given beside them.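 Across three biological replicates, HeLa cells were imaged for ribosome assembly using ENP1 staining (export block present or absent) or inducible tagged ribosomal protein reporters. Machine learning classified each cell's signal localization relative to DMSO controls. Hits exceeded the DMSO false-positive mean by five standard deviations and were then visually confirmed.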

Each compound was assayed on HeLa RPL29-GFP reporter (assay: fraction of reporter-positive cells with nuclear (nucleolar or nucleolar/nucleoplasmic) RPL29-GFP (MainHitrate); higher = more cells with nucleolar/nuclear readout signal (for ENP1 -LMB: less RNAPI inhibition; for +LMB ENP1 and RP reporters: stronger nuclear/nucleolar retention, i.e. ribosome biogenesis defect)). Details: concentration: 1 µM; treatment time: 6 h.

Structure (SMILES) | fraction of reporter-positive cells with nuclear
Nc1nc2ccc(OC(F)(F)F)cc2s1 [Riluzole (Rilutek)] | 0.241 ± 0.079
O=C(O)c1cc(=O)c2c(OCC(O)COc3cccc4oc(C(=O)O)cc(=O)c34)cccc2o1 [Disodium Cromoglycate] | 0.217 ± 0.075
Cc1cccc(Nc2ccccc2C(=O)O)c1C [Mefenamic acid] | 0.263 ± 0.06
Nc1nc(F)nc2c1ncn2[C@@H]1O[C@H](COP(=O)(O)O)[C@@H](O)[C@@H]1O [Fludarabine Phosphate (Fludara)] | 0.191 ± 0.072
CN(C)c1nc(N(C)C)nc(N(C)C)n1 [Altretamine (Hexalen)] | 0.203 ± 0.09
Nc1nc(Cl)nc2c1ncn2[C@@H]1O[C@H](CO)[C@@H](O)[C@@H]1F [Clofarabine] | 0.138 ± 0.055
Cc1ccccc1C(OCCN(C)C)c1ccccc1 (centres undefined) [Orphenadrine citrate (Norflex)] | 0.223 ± 0.059
COc1ccc(CN(CCN(C)C)c2ccccn2)cc1 [Pyrilamine Maleate] | 0.298 ± 0.2
CCC(C)n1ncn(-c2ccc(N3CCN(c4ccc(OCC5COC(Cn6cncn6)(c6ccc(Cl)cc6Cl)O5)cc4)CC3)cc2)c1=O (centres undefined) [Itraconazole (Sporanox)] | 0.217 ± 0.034
NC(=O)c1cccnc1 [Nicotinamide (Niacinamide)] | 0.231 ± 0.05
N[C@@H](Cc1ccc(O)c(O)c1)C(=O)O [Levodopa (Sinemet)] | 0.208 ± 0.064
C[C@]12CCC3=C4CCC(=O)C=C4CC[C@H]3[C@@H]1CC[C@@]2(O)CC#N [Dienogest] | 0.215 ± 0.074
CC(C)/N=c1\cc2n(-c3ccc(Cl)cc3)c3ccccc3nc-2cc1Nc1ccc(Cl)cc1 [Clofazimine] | 0.224 ± 0.054
CO[C@H]1/C=C/O[C@@]2(C)Oc3c(C)c(O)c4c(c3C2=O)C2=NC3(CCN(CC(C)C)CC3)NC2=C(NC(=O)/C(C)=C\C=C\[C@H](C)[C@H](O)[C@@H](C)[C@@H](O)[C@@H](C)[C@H](OC(C)=O)[C@@H]1C)C4=O [Rifabutin (Mycobutin)] | 0.205 ± 0.064

2 records drawn at random from those above:
Structure (SMILES) | fraction of reporter-positive cells with nuclear
CN(C)c1nc(N(C)C)nc(N(C)C)n1 [Altretamine (Hexalen)] | 0.203 ± 0.09
C[C@]12CCC3=C4CCC(=O)C=C4CC[C@H]3[C@@H]1CC[C@@]2(O)CC#N [Dienogest] | 0.215 ± 0.074
